# Reference: PMC5996148
# Some of the results follow.
# Experiments:
# Test in all cases: protein microarray (ProtoArray v5.0), streptavidin-Alexa Fluor 647
# Conditions in all cases: 3'-biotin; 20 mM Tris (pH 7.5), 5 mM MgCl2, 100 mM KCl, 0.1% Tween-20, A/T-rich and random oligonucleotide blockers; temperature not stated; high values mean tight binding
# [1] = system: LYPLA2 (human)
# [2] = system: LYPLAL1 (human)
# [3] = system: LYRM5 (human)
# [4] = system: LYSMD2 (human)
# [5] = system: LYSMD3 (human)
# [6] = system: LYZL1 (human)
# [7] = system: LYZL2 (human)
# [8] = system: LYZL6 (human)
# [9] = system: LZIC (human)
# [10] = system: LZTR2 (human)
# [11] = system: Lactation elevated protein 1 (human)
# [12] = system: Lactoylglutathione lyase (human)
# [13] = system: Leptin receptor gene-related protein (human)
# [14] = system: Leucine carboxyl methyltransferase 1 (human)
# [15] = system: Leucine-rich repeat and fibronectin type-III domain-containing protein 4 (human)
# [16] = system: Leucine-rich repeat serine/threonine-protein kinase 1 (human)
# [17] = system: Leucine-rich repeat-containing protein 61 (human)
# [18] = system: Leukemia-associated protein 1 (human)
# [19] = system: Leukocyte common antigen (human)
# [20] = system: Leukocyte tyrosine kinase receptor (human)
sequence,measurement,setting,value
GGGAGGCTGAGGCAGG [G4-1 biotinylated (PQS2)],binding signal,[1],-0.314 z-score
same,binding signal,[2],-0.35 z-score
same,binding signal,[3],-0.309 z-score
same,binding signal,[4],-0.354 z-score
same,binding signal,[5],-0.342 z-score
same,binding signal,[6],-0.278 z-score
same,binding signal,[7],-0.327 z-score
same,binding signal,[8],-0.342 z-score
same,binding signal,[9],-0.362 z-score
same,binding signal,[10],-0.281 z-score
same,binding signal,[11],-0.334 z-score
same,binding signal,[12],-0.33 z-score
same,binding signal,[13],-0.344 z-score
same,binding signal,[14],-0.342 z-score
same,binding signal,[15],-0.296 z-score
same,binding signal,[16],-0.324 z-score
same,binding signal,[17],-0.311 z-score
same,binding signal,[18],-0.304 z-score
same,binding signal,[19],-0.326 z-score
same,binding signal,[20],-0.25 z-score

# Another view of some results above.
sequence	measurement	setting	value
GGGAGGCTGAGGCAGG [G4-1 biotinylated (PQS2)]	binding signal	[12]	-0.33 z-score
same	binding signal	[13]	-0.344 z-score
